Data taken from the supplement of paper PMC8728848.
The other results are listed elsewhere or left out.

Key:
Experiment in all cases: glycan array binding signal (z-score within array); higher = stronger binding
Conditions in all cases: glycan notation: IUPAC condensed, linker removed
[1] = target: Neu5Ac(a2-3)Gal(b1-4)GlcNAc(b1-3)[Neu5Ac(a2-3)Gal(b1-4)GlcNAc(b1-6)]GalNAc
Method in brief: (§1)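 The binding signal is a Z-score computed within each array and averaged over linkers. Arrays of the same protein sequence at different concentrations or buffers were also averaged together. Data originate from 3228 arrays in the Consortium for Functional Glycomics database, kept only where the protein sequence was available.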

[2] = target: Neu5Ac(a2-3)Gal(b1-4)GlcNAc(b1-6)GalNAc
Method in brief: as §1

[3] = target: Neu5Ac(a2-3)Gal(b1-4)GlcNAc(b1-6)[Gal(b1-3)]GalNAc
Method in brief: as §1

[4] = target: Neu5Ac(a2-3)Gal(b1-4)GlcNAc(b1-6)[Neu5Ac(a2-3)Gal(b1-3)]GalNAc
Method in brief: as §1

[5] = target: Neu5Ac(a2-3)Gal(b1-4)GlcNAc6S
Method in brief: as §1

[6] = target: Neu5Ac(a2-3)Gal(b1-4)[Fuc(a1-3)]GlcNAc
Method in brief: as §1

[7] = target: Neu5Ac(a2-3)Gal(b1-4)[Fuc(a1-3)]GlcNAc(b1-2)Man
Method in brief: as §1

[8] = target: Neu5Ac(a2-3)Gal(b1-4)[Fuc(a1-3)]GlcNAc(b1-3)Gal
Method in brief: as §1

[9] = target: Neu5Ac(a2-3)Gal(b1-4)[Fuc(a1-3)]GlcNAc(b1-3)Gal(b1-4)GlcNAc
Method in brief: as §1

[10] = target: Neu5Ac(a2-3)Gal(b1-4)[Fuc(a1-3)]GlcNAc(b1-3)Gal(b1-4)[Fuc(a1-3)]GlcNAc(b1-3)Gal(b1-4)[Fuc(a1-3)]GlcNAc
Method in brief: as §1

[11] = target: Neu5Ac(a2-3)Gal(b1-4)[Fuc(a1-3)]GlcNAc(b1-3)GalNAc
Method in brief: as §1

[12] = target: Neu5Ac(a2-3)Gal(b1-4)[Fuc(a1-3)]GlcNAc(b1-6)[Gal(b1-3)]GalNAc
Method in brief: as §1

[13] = target: Neu5Ac(a2-3)Gal(b1-4)[Fuc(a1-3)]GlcNAc(b1-6)[Neu5Ac(a2-3)Gal(b1-3)]GalNAc
Method in brief: as §1

[14] = target: Neu5Ac(a2-3)Gal(b1-4)[Fuc(a1-3)]GlcNAc6S
Method in brief: as §1

[15] = target: Neu5Ac(a2-3)Gal6S(b1-4)GlcNAc
Method in brief: as §1

[16] = target: Neu5Ac(a2-3)Gal6S(b1-4)[Fuc(a1-3)]GlcNAc
Method in brief: as §1

Neu5Ac(a2-3)GalNAc = target: Neu5Ac(a2-3)GalNAc
Method in brief: as §1

[17] = target: Neu5Ac(a2-3)GalNAc(b1-4)GlcNAc
Method in brief: as §1

[18] = target: Neu5Ac(a2-3)[GalNAc(b1-4)]Gal(b1-4)Glc
Method in brief: as §1

[19] = target: Neu5Ac(a2-3)[GalNAc(b1-4)]Gal(b1-4)GlcNAc
Method in brief: as §1

[20] = target: Neu5Ac(a2-3)[GalNAc(b1-4)]Gal(b1-4)GlcNAc(b1-3)GalNAc
Method in brief: as §1

[21] = target: Neu5Ac(a2-3)[Neu5Ac(a2-6)]GalNAc
Method in brief: as §1

Neu5Ac(a2-6)Gal = target: Neu5Ac(a2-6)Gal
Method in brief: as §1

[22] = target: Neu5Ac(a2-6)Gal(b1-3)GlcNAc(b1-3)[Gal(b1-4)GlcNAc(b1-6)]Gal(b1-4)Glc
Method in brief: as §1

Neu5Ac(a2-6)Gal(b1-4)Glc = target: Neu5Ac(a2-6)Gal(b1-4)Glc
Method in brief: as §1

[23] = target: Neu5Ac(a2-6)Gal(b1-4)GlcNAc
Method in brief: as §1

[24] = target: Neu5Ac(a2-6)Gal(b1-4)GlcNAc(b1-2)Man
Method in brief: as §1

[25] = target: Neu5Ac(a2-6)Gal(b1-4)GlcNAc(b1-2)Man(a1-3)Man(b1-4)GlcNAc(b1-4)GlcNAc
Method in brief: as §1

[26] = target: Neu5Ac(a2-6)Gal(b1-4)GlcNAc(b1-2)Man(a1-3)[Gal(b1-4)GlcNAc(b1-2)Man(a1-6)]Man(b1-4)GlcNAc(b1-4)GlcNAc
Method in brief: as §1

[27] = target: Neu5Ac(a2-6)Gal(b1-4)GlcNAc(b1-2)Man(a1-3)[GlcNAc(b1-2)Man(a1-6)]Man(b1-4)GlcNAc(b1-4)GlcNAc
Method in brief: as §1

[28] = target: Neu5Ac(a2-6)Gal(b1-4)GlcNAc(b1-2)Man(a1-3)[GlcNAc(b1-4)][Neu5Ac(a2-6)Gal(b1-4)GlcNAc(b1-2)Man(a1-6)]Man(b1-4)GlcNAc(b1-4)GlcNAc
Method in brief: as §1

[29] = target: Neu5Ac(a2-6)Gal(b1-4)GlcNAc(b1-2)Man(a1-3)[Man(a1-6)]Man(b1-4)GlcNAc(b1-4)GlcNAc
Method in brief: as §1

[30] = target: Neu5Ac(a2-6)Gal(b1-4)GlcNAc(b1-2)Man(a1-3)[Neu5Ac(a2-3)Gal(b1-4)GlcNAc(b1-2)Man(a1-6)]Man(b1-4)GlcNAc(b1-4)GlcNAc
Method in brief: as §1

[31] = target: Neu5Ac(a2-6)Gal(b1-4)GlcNAc(b1-2)Man(a1-3)[Neu5Ac(a2-6)Gal(b1-4)GlcNAc(b1-2)Man(a1-6)]Man(b1-4)GlcNAc(b1-4)GlcNAc
Method in brief: as §1

[32] = target: Neu5Ac(a2-6)Gal(b1-4)GlcNAc(b1-2)Man(a1-3)[Neu5Ac(a2-6)Gal(b1-4)GlcNAc(b1-2)Man(a1-6)]Man(b1-4)GlcNAc(b1-4)[Fuc(a1-6)]GlcNAc
Method in brief: as §1

[33] = target: Neu5Ac(a2-6)Gal(b1-4)GlcNAc(b1-2)Man(a1-6)Man(b1-4)GlcNAc(b1-4)GlcNAc
Method in brief: as §1

[34] = target: Neu5Ac(a2-6)Gal(b1-4)GlcNAc(b1-2)Man(a1-6)[Gal(b1-4)GlcNAc(b1-2)Man(a1-3)]Man(b1-4)GlcNAc(b1-4)GlcNAc
Method in brief: as §1

[35] = target: Neu5Ac(a2-6)Gal(b1-4)GlcNAc(b1-2)Man(a1-6)[GlcNAc(b1-2)Man(a1-3)]Man(b1-4)GlcNAc(b1-4)GlcNAc
Method in brief: as §1

[36] = target: Neu5Ac(a2-6)Gal(b1-4)GlcNAc(b1-2)Man(a1-6)[Man(a1-3)]Man(b1-4)GlcNAc(b1-4)GlcNAc
Method in brief: as §1

[37] = target: Neu5Ac(a2-6)Gal(b1-4)GlcNAc(b1-2)[Neu5Ac(a2-6)Gal(b1-4)GlcNAc(b1-4)]Man(a1-3)[GlcNAc(b1-4)][Neu5Ac(a2-6)Gal(b1-4)GlcNAc(b1-2)[Neu5Ac(a2-6)Gal(b1-4)GlcNAc(b1-6)]Man(a1-6)]Man(b1-4)GlcNAc(b1-4)GlcNAc
Method in brief: as §1

[38] = target: Neu5Ac(a2-6)Gal(b1-4)GlcNAc(b1-2)[Neu5Ac(a2-6)Gal(b1-4)GlcNAc(b1-4)]Man(a1-3)[GlcNAc(b1-4)][Neu5Ac(a2-6)Gal(b1-4)GlcNAc(b1-4)Man(a1-6)]Man(b1-4)GlcNAc(b1-4)GlcNAc
Method in brief: as §1

[39] = target: Neu5Ac(a2-6)Gal(b1-4)GlcNAc(b1-2)[Neu5Ac(a2-6)Gal(b1-4)GlcNAc(b1-6)]Man(a1-6)[Neu5Ac(a2-6)Gal(b1-4)GlcNAc(b1-2)Man(a1-3)][GlcNAc(b1-4)]Man(b1-4)GlcNAc(b1-4)GlcNAc
Method in brief: as §1

[40] = target: Neu5Ac(a2-6)Gal(b1-4)GlcNAc(b1-3)Gal(b1-3)GlcNAc
Method in brief: as §1

[41] = target: Neu5Ac(a2-6)Gal(b1-4)GlcNAc(b1-3)Gal(b1-4)GlcNAc
Method in brief: as §1

[42] = target: Neu5Ac(a2-6)Gal(b1-4)GlcNAc(b1-3)Gal(b1-4)GlcNAc(b1-2)Man(a1-3)[Neu5Ac(a2-6)Gal(b1-4)GlcNAc(b1-3)Gal(b1-4)GlcNAc(b1-2)Man(a1-6)]GalNAc
Method in brief: as §1

B1: AFL6 (Aspergillus fumigatus), Q4WKJ1 (protein)
chain: MSFHLTAEDIRIEDGHRLVARLRNADGDLQDASIDLNTCLGNDNGHFQWDGVDFSHSAQDVHFAIEGGGQVPVLRAQLANQDGEFQDADVNLSERIENINGEFVFH
glycan array binding signal (z-score) [1]: -0.381 | glycan array binding signal (z-score) [2]: 0.04 | glycan array binding signal (z-score) [3]: 1.09 | glycan array binding signal (z-score) [4]: -0.203 | glycan array binding signal (z-score) [5]: -0.19 | glycan array binding signal (z-score) [6]: -0.52 | glycan array binding signal (z-score) [7]: 0.108 | glycan array binding signal (z-score) [8]: -0.36 | glycan array binding signal (z-score) [9]: 0.001 | glycan array binding signal (z-score) [10]: -0.489 | glycan array binding signal (z-score) [11]: 0.871 | glycan array binding signal (z-score) [12]: -0.324 | glycan array binding signal (z-score) [13]: 0.974 | glycan array binding signal (z-score) [14]: -0.407 | glycan array binding signal (z-score) [15]: 0.324 | glycan array binding signal (z-score) [16]: -0.72 | glycan array binding signal (z-score) (Neu5Ac(a2-3)GalNAc): -0.183 | glycan array binding signal (z-score) [17]: -0.053 | glycan array binding signal (z-score) [18]: 0.054 | glycan array binding signal (z-score) [19]: -0.458 | glycan array binding signal (z-score) [20]: -0.263 | glycan array binding signal (z-score) [21]: -0.403 | glycan array binding signal (z-score) (Neu5Ac(a2-6)Gal): -0.393 | glycan array binding signal (z-score) [22]: -0.324 | glycan array binding signal (z-score) (Neu5Ac(a2-6)Gal(b1-4)Glc): -0.418 | glycan array binding signal (z-score) [23]: -0.308 | glycan array binding signal (z-score) [24]: 0.222 | glycan array binding signal (z-score) [25]: 0.065 | glycan array binding signal (z-score) [26]: 0.015 | glycan array binding signal (z-score) [27]: 0.545 | glycan array binding signal (z-score) [28]: -0.394 | glycan array binding signal (z-score) [29]: -0.362 | glycan array binding signal (z-score) [30]: -0.35 | glycan array binding signal (z-score) [31]: 0.163 | glycan array binding signal (z-score) [32]: 0.747 | glycan array binding signal (z-score) [33]: 0.117 | glycan array binding signal (z-score) [34]: -0.991 | glycan array binding signal (z-score) [35]: -0.483 | glycan array binding signal (z-score) [36]: 0.16 | glycan array binding signal (z-score) [37]: -0.213 | glycan array binding signal (z-score) [38]: -0.275 | glycan array binding signal (z-score) [39]: -0.213 | glycan array binding signal (z-score) [40]: 1.09 | glycan array binding signal (z-score) [41]: -0.666 | glycan array binding signal (z-score) [42]: 0.521
